All values are in %.
How 0% and 100% were set is not recorded. Most values in the screen are low, and negative values occur.
This is an unselected part of the compounds tested.
A dash means the value is not listed here; it may have been measured.

Amino acid sequences for entries named in this document (tags omitted).
UniProt E9BF75, entry or part of it: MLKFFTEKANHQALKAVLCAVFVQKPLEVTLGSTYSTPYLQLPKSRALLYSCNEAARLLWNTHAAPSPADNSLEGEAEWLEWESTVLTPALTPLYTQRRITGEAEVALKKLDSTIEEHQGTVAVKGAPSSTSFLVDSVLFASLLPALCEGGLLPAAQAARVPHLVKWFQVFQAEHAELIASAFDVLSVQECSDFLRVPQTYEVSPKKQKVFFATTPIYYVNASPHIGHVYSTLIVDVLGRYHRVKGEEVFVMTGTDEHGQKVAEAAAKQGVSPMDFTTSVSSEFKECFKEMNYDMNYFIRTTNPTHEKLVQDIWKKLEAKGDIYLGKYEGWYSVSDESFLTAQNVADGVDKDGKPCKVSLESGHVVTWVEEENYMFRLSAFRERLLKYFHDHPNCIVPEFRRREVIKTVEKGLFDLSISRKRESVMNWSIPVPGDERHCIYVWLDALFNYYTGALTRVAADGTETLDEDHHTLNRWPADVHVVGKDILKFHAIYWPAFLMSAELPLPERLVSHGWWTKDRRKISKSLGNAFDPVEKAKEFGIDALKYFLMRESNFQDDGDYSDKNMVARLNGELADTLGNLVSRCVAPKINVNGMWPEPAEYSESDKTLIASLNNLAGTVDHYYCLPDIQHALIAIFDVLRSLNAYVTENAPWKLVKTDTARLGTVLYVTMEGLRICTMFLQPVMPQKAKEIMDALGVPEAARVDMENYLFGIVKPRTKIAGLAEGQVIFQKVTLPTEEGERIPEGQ

A: 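Assay on Mycobacterium tuberculosis, filed only as a heat shock assay from Cornell; the read-out is not stated. The concentration is filed as 10 mM, unlikely as a test dose, so the dose is not known. Higher reads as stronger inhibition (inferred: compounds with an IC50 in retests scored well above the rest). Of about 69,000 compounds tested this way, about 930 (1.4%) reached 50% or more in at least one test.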
B: 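Whole-cell assay for inhibitors of Mycobacterium tuberculosis growth, labelled Cornell in the record; the read-out is not stated. The concentration is filed as 10 mM, unlikely as a test dose, so the dose is not known. The record gives no direction; compounds strong in two other growth screens of this library score well above the rest, so higher reads as stronger inhibition. Of about 53,000 compounds tested this way, about 900 (1.7%) reached 50% or more in at least one test.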
C: 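Primary screen of methionyl-tRNA synthetase; the read-out is not stated. Target: Methionyl-tRNA synthetase (putative), Leishmania donovani (UniProt E9BF75). The test concentration is not given. Values are per cent inhibition. About 68,000 compounds were tested under these conditions; 0.035% (about 24) showed 50% or more at least once.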

structure	A	B	C
CC(C)c1nccc(C2CC(=O)Nc3n[nH]c(C4CCC4)c32)n1 (stereo unspecified)	0.8688	28.48	14.64
CC(=O)N1CCN(CCNS(=O)(=O)c2cc(F)ccc2C)CC1	7.231	13.79	18.03
OCCn1cc(CN2CCN(CCOc3ccccc3F)CC2)cn1	1.589	-8.884	-4.127
COc1c(F)cc(-c2cccc3c2OC(CN)C3)cc1F (stereo unspecified)	15.46	-	11.15
O=S(=O)(CCO)Cc1ccc(OCC(F)(F)F)cc1	9.687	13.53	15.96
[H][C@]12CNC[C@@]1(C(=O)NCCS(=O)(=O)NC)CN(C1CCCC1)C2	6.054	1.617	-
CN1CCC(CN(C)S(=O)(=O)CC2CCCCC2)CC1	-23.52	-37.01	-0.3484
O=C(NCc1ccccn1)Nc1ccc2[nH]nnc2c1	0.1692	28.49	16.23
CSCCC(NC(N)=O)C(=O)NCc1c(C)nn(-c2ccccc2)c1C (stereo unspecified)	21.75	-4.034	4.348
CCCc1nc(CN2CCCC2Cn2cccn2)cs1 (stereo unspecified)	-3.08	15.25	14.12
CS(=O)(=O)N1CCO[C@@H]2CN(Cc3ccc(F)cc3)CC[C@@H]2C1	-	-	5.882
CCOC(C)C(=O)NCc1ccc(N(C)C)cc1 (stereo unspecified)	-10.41	-	22.1
CCOCC(O)CN1CCN(C(=O)Cc2ccc3c(c2)CCC3)CC1 (stereo unspecified)	-53.34	-	8.197
Cc1nc(N(C)C)nc(C)c1NS(=O)(=O)c1ccc(OC(F)(F)F)cc1	-1.401	21.9	13.82
CSCCNC(=O)c1coc(COc2ccc3sc(C)nc3c2)n1	20.01	21.04	8.696
O=C(CCn1cccn1)N1C[C@@H]2CC[C@H](C1)N(Cc1ccccn1)C2=O	-	-	11.96
c1ccc(-n2ccc(CN3CCCC3Cn3cccn3)n2)cc1 (stereo unspecified)	35.01	41.89	10.1
Cc1n[nH]c(C)c1CNC(=O)CSCc1ccccc1Cl	-11.47	-2.998	0
CC(C)(C)c1cnc(CN2CCC(NC(=O)CC3CCCC3)CC2)o1	-26.85	4.651	7.125
Cc1ccc(CN2CCOC3(COCCN(CCN(C)C)C3)C2)o1.O=C(O)C(F)(F)F.O=C(O)C(F)(F)F.O=C(O)C(F)(F)F (stereo unspecified)	9.729	-	-
Cc1ccc(C(CNC(=O)NCc2cc[nH]n2)N2CCOCC2)o1 (stereo unspecified)	37.97	-3.972	4.294
Cc1cnc(N2CCC3(CCC(C(=O)NC(C)C)C3)CC2)nc1 (stereo unspecified)	-	-	19.57
Cc1ccsc1[C@@H]1CCN(C(=O)CCc2n[nH]c(C)c2C)C[C@H]1O	-39.37	-56.62	-0.5376
c1csc(CN2CCc3c(CNc4nncs4)cncc3C2)c1	-	-	0.3175
CN(C)C(=O)c1cn[nH]c1C1(C)CCCN(Cc2ccccn2)C1 (stereo unspecified)	-20.05	-13.09	11.58
CC1c2ncc(CNC(=O)C3CC3)n2CCN1Cc1ccncc1 (stereo unspecified)	-	-	10.68
Cc1c(C(=O)NCC(F)(F)F)nnn1-c1ccccc1Cl	-16.64	37.51	5.514
CCc1c(C)nn(CCNC(=O)c2csc(C)n2)c1C	-17.11	0.4262	9.804
CCCN1CCCN(c2ncccc2C(=O)N2CCCCC2)CC1	7.037	10.21	7.092
O=c1[nH]c(-c2ccc(F)cc2)nc2c1CCNC2	11.07	-	9.6
O=C(O)C(F)(F)F.O=C(O)C(F)(F)F.[H][C@@]12OCCC[C@]1([H])N(Cc1cc(C)c(C)o1)C[C@@H]2N1CCOCC1	-4.975	17.31	-
Cn1ccc(CN2CCC3(CCCN3CC3CC3)CC2)n1.O=C(O)C(F)(F)F.O=C(O)C(F)(F)F	13.61	-5.12	-
CCc1noc(CN(CC(=O)N2CCCCC2)c2ccc(C)cc2)n1	7.623	28.66	8.6
COc1cc(N[C@@H](Cc2ccccc2)C(N)=O)ncn1	0.2022	-47.23	9.025
COCCC(=O)N1C[C@H](C(C)C)[C@@H](N(C)C)C1	-9.482	-	7.05
CCOC(=O)c1c(NC(=O)C2CCN(C(C)=O)CC2)sc(C)c1CC	12.02	0.6351	8.451
Cc1noc(C)c1CCCNC(=O)Nc1cccc([S+](C)[O-])c1 (stereo unspecified)	1.106	-	11.85
O=S1(=O)NCC2(CCN(Cc3ccc(Cl)s3)C2)Oc2ncccc21 (stereo unspecified)	-38.61	-	2.286
Cc1cnn(CC(C)NCc2nc(-c3ccco3)no2)c1 (stereo unspecified)	-8.654	6.502	10.62
CC(C)c1sc(Br)nc1C(=O)NCc1ccco1	-14.93	24.8	7.547
CCc1nc(CN(C)CC(c2cccs2)N2CCOCC2)no1 (stereo unspecified)	-22	5.077	10.48
CNC(=O)[C@@H]1[C@@H](OC(=O)Nc2ccccc2)C(=O)N(C)C12CCNCC2	60.88	3.497	8.493
Cl.c1ccc(-c2cc(CNCCCC3CCOC3)c3nnnn3c2)cc1 (stereo unspecified)	-4.809	-20.16	-
CC(Cn1cccn1)NCC(=O)NC1(C#N)CCCCC1 (stereo unspecified)	2.19	3.553	12.94
CN(CC(F)(F)F)C(=O)CNC(=O)N1CCCC(C(F)(F)F)C1 (stereo unspecified)	15.3	13.02	19.52
c1ccc(CO[C@H]2CC[C@H]3[C@H]2OCCN3CCN2CCCCC2)nc1	-	-	0
Cc1cc(NCCNS(=O)(=O)c2cn(C)nc2C)c2ccccc2n1	-4.705	11.79	10.64
O=C(CCCOCc1ccccc1)N1CCCC1c1ccccn1 (stereo unspecified)	-7.982	23.05	7.981
c1ccc(CN2CCCC3(CCN(CC4CCCO4)CC3)C2)nc1 (stereo unspecified)	-	-	7.038
CC(C)c1nc(C2CCCN(C(=O)CCCn3cncn3)C2)no1 (stereo unspecified)	-0.6391	0.5698	11.11
Cc1csc(CCNC(=O)N2CCC(NC(=O)OC(C)(C)C)CC2)n1	10.45	11.67	12.57
Cc1nc(CN2CC[C@@H]3O[C@@H](C(=O)N4CCOCC4)C[C@@H]32)cs1	-	-	9.295
CCN(CCO)C[C@@H]1CN(c2cc(C(F)(F)F)cc(C)n2)C[C@@H]1CO	-18.36	-5.649	7.396
Cc1ccc(CN2CCc3onc(C(=O)NCCN(C)C)c3C2)o1.O=C(O)C(F)(F)F.O=C(O)C(F)(F)F	3.552	6.093	-
COCCn1cc(NC(=O)NCC(c2cccc(F)c2)N(C)C)cn1 (stereo unspecified)	-22.62	-	19.67
O=c1oc(-c2cccs2)nn1CC(O)c1ccccc1 (stereo unspecified)	7.344	33.22	16.59
Cc1ccc(-c2cc(CNC(=O)N3CCSCC3)on2)cc1	-13.85	-	21.79
COc1ccc([C@@H]2C[C@H](NC(C)=O)C[C@H](CCc3ccccc3)O2)cn1	-37.41	10.82	6.145
CN(C(=O)c1ccc(Cl)cn1)c1ccccc1S(C)(=O)=O	-10.14	-	10.26
COC(=O)c1cccc(S(=O)(=O)N2CSCC2C(=O)N(C)C2CC2)c1 (stereo unspecified)	-0.2691	0.6255	9.783
CCc1nc(CN2CCCN(c3cnc4ccccc4n3)CC2)no1	26.27	-	13.66
CCN(CC)c1ncccc1CNC(=O)c1cc2nc(C)cc(C)n2n1	-18.45	2.185	4.969
COc1cc(CNC(C)Cn2cccn2)cc(OC)c1OC.Cl (stereo unspecified)	1.582	16.36	-
O=C(c1cn2ccsc2n1)N1CCN(CC2CC2)[C@@H]2CS(=O)(=O)C[C@@H]21	-	-	9.645
Cc1ccc(N(C)C2CCN(C(=O)c3n[nH]c4c3CCC4)CC2)nn1	-34.08	-4.091	17.31
Cc1ccnc(NCCSc2nccn2C)n1	9.062	-4.311	12.26
CCOC(=O)CN1C[C@@H]2OCCN(c3ncc(F)cn3)[C@@H]2C1	-	-	0
COc1ncccc1C1CC(=O)NCc2nc3ccccn3c21 (stereo unspecified)	1.708	-	17.03
[H][C@@]12CCN(C)[C@]1([H])CN(C(=O)c1csc(Cc3ccccc3)n1)C2	-19.15	11.16	-
O=C(NCCc1ccccn1)c1[nH]nc2c1CCCC2	-26.05	20.26	16.43
CS(=O)(=O)N1CCN(C(=O)CCn2cccn2)CC1	16.22	-	7.302

5 of the entries, repeated:

| structure | A | B | C |
|---|---|---|---|
| `Cc1cnn(CC(C)NCc2nc(-c3ccco3)no2)c1` (stereo unspecified) | -8.654 | 6.502 | 10.62 |
| `O=C(c1cn2ccsc2n1)N1CCN(CC2CC2)[C@@H]2CS(=O)(=O)C[C@@H]21` | - | - | 9.645 |
| `O=C(NCCc1ccccn1)c1[nH]nc2c1CCCC2` | -26.05 | 20.26 | 16.43 |
| `CS(=O)(=O)N1CCO[C@@H]2CN(Cc3ccc(F)cc3)CC[C@@H]2C1` | - | - | 5.882 |
| `Cc1csc(CCNC(=O)N2CCC(NC(=O)OC(C)(C)C)CC2)n1` | 10.45 | 11.67 | 12.57 |

From ChEMBL document CHEMBL3988442, “University of Dundee, Small-Polar-MMV Screening Library” (2021).